Laboratory results taken from the supplement of paper PMC12067093, “Discovery and optimisation of a covalent ligand for TRIM25 and its application to targeted protein ubiquitination” (Chemical Science, 2025).
This is one part of the list.

Chains of the proteins cited; added tags and fusions are not shown. Lines headed by an entry give the natural chain unless they say otherwise; changes in a name come on top.
UniProt Q96R06: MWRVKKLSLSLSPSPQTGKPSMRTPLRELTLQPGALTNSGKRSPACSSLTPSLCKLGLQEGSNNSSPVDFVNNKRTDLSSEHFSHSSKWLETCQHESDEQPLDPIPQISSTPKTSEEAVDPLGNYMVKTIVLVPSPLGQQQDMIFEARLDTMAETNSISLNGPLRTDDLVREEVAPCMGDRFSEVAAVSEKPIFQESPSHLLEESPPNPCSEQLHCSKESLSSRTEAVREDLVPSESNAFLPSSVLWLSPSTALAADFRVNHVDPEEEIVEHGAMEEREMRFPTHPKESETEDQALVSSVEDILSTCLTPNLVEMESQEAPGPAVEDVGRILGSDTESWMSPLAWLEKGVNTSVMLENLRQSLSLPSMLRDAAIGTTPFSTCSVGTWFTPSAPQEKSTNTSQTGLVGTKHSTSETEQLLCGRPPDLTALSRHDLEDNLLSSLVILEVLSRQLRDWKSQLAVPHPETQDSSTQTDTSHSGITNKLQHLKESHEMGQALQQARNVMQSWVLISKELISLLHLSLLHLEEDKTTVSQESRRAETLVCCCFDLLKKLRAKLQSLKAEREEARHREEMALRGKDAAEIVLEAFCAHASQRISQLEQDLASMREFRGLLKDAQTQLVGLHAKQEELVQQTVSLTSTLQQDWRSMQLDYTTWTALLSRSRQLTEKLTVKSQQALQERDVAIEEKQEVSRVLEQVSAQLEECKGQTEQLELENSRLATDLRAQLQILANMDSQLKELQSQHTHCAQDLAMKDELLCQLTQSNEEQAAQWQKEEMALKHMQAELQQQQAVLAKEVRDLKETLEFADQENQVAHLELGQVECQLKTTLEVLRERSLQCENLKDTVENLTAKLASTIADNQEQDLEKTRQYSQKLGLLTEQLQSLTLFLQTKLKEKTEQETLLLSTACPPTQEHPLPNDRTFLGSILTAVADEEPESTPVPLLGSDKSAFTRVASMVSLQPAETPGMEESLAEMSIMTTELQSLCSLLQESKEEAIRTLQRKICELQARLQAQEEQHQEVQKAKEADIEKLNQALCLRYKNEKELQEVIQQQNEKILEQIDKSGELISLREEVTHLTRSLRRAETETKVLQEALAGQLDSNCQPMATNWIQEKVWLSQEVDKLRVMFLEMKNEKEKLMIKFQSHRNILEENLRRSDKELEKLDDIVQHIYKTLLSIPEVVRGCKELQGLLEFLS
UniProt Q96SB4, whole entry, looked up: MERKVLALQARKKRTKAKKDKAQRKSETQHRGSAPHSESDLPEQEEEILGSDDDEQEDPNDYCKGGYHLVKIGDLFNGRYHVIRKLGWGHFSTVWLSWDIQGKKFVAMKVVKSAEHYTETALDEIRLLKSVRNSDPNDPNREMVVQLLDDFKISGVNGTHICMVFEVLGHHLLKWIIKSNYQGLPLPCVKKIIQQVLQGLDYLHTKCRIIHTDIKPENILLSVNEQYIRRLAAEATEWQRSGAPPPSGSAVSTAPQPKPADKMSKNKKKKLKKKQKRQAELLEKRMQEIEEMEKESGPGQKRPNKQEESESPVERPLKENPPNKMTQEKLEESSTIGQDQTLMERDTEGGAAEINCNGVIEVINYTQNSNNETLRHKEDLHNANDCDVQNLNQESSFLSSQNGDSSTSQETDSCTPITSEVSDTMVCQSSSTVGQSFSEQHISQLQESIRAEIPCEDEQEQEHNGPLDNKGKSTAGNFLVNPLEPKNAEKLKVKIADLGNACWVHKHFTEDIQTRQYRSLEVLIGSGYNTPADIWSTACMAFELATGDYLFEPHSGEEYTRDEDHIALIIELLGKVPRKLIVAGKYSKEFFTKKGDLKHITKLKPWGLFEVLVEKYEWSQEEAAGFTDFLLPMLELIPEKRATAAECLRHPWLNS
UniProt O60493, whole entry, looked up: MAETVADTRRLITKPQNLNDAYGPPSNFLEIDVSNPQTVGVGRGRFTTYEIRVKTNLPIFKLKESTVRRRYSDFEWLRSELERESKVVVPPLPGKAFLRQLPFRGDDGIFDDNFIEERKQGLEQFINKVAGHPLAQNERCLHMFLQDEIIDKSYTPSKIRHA
UniProt Q9Y5M8: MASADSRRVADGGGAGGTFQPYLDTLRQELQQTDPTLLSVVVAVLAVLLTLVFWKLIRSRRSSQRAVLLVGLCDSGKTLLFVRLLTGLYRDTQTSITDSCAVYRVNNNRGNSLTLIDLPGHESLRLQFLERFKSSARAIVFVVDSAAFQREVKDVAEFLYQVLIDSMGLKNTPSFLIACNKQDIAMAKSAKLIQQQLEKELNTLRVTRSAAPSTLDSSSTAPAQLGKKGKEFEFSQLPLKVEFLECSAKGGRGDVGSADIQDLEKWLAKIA

compound: Cc1cc(ccc1-c1ccccc1)C(=O)N1CCCN(CC1)C(=O)CCl [compound 10]; test: probe-labelled cysteine peptide fold change vs DMSO (competition) (log2 fold change); higher = less target engagement (more negative = stronger competition); details: 50 µM; THP-1; incubation time: 4 h
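Also: competitive profiling in live THP-1 cells: cysteine peptides tagged with an iodoacetamide desthiobiotin (IA-DTB) probe, intensity after compound treatment relative to DMSO-treated cells.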

| Target | probe-labelled cysteine peptide fold change |
| --- | --- |
| SPAG5_Q96R06_420_HSTSETEQLLCGRPPDLTALSR (UniProt Q96R06) | -0.399 |
| SRPK1_Q96SB4_647_ATAAECLR (UniProt Q96SB4) | -0.00503 |
| SNX3_O60493_140_CLHMFLQDEIIDK (UniProt O60493) | -0.235 |
| SRPRB_Q9Y5M8_179_NTPSFLIACNK (UniProt Q9Y5M8) | 0.111 |
